Paper PMC10238091

Protein sequences, listed by entry. Tags and fused reporters are not part of them.
UniProt Q7Z739: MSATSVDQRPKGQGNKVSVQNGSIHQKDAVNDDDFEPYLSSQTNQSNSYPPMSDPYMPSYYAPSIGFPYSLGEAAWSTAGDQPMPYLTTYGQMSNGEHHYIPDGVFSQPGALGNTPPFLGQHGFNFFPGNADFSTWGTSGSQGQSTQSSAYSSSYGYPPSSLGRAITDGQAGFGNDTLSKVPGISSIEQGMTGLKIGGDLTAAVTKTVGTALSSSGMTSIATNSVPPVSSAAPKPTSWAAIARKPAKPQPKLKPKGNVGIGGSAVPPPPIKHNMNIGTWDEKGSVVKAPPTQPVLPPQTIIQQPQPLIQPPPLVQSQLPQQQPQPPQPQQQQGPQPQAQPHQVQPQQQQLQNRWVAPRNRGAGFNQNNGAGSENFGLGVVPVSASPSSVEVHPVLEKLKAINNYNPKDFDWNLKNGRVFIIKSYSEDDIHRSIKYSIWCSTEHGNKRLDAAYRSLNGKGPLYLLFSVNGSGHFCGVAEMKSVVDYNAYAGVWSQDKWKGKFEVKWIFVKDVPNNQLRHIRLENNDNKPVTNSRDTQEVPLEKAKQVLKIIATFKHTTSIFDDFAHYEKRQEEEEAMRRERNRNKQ

T1: SA1 (Stromalin Antigen 1, STAG1) (human (endogenous in HCT116 and HeLa)) (UniProt Q8WVM7)
T1 sequence: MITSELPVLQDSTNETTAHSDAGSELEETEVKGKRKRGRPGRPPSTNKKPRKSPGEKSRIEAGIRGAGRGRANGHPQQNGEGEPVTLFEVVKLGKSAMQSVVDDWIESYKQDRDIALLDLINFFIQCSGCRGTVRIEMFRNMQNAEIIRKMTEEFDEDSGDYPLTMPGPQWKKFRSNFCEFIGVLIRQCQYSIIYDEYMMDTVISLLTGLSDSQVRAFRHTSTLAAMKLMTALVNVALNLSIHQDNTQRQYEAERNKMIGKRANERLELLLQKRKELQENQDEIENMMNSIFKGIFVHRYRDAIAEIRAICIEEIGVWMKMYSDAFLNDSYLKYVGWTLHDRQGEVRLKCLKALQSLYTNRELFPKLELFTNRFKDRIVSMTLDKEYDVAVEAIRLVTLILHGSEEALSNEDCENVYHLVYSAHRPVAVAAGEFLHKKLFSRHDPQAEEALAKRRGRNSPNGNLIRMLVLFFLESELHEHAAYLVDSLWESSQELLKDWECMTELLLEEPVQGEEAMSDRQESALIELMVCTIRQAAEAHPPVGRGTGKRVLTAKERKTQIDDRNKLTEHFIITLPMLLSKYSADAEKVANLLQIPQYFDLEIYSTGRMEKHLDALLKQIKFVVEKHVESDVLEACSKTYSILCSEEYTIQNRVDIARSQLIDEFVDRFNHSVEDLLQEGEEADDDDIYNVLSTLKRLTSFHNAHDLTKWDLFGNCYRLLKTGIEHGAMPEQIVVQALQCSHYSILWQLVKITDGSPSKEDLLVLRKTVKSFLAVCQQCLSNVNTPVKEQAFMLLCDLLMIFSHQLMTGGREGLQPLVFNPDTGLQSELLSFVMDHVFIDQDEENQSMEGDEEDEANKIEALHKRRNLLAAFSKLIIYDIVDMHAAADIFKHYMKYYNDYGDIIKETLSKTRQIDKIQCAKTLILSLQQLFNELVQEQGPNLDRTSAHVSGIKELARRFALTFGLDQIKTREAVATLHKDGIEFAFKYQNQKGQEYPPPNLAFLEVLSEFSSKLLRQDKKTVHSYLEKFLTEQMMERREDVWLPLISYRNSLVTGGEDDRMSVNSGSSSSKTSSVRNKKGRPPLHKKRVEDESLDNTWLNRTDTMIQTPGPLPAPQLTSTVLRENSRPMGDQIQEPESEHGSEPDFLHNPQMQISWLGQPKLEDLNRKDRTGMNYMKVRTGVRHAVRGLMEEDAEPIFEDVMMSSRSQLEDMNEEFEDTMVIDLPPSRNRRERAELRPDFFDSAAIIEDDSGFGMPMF

T2: YFP-SA2^e32+ (YFP-tagged SA2 containing exon 32) (human) (UniProt Q8N3U4)
T2 sequence: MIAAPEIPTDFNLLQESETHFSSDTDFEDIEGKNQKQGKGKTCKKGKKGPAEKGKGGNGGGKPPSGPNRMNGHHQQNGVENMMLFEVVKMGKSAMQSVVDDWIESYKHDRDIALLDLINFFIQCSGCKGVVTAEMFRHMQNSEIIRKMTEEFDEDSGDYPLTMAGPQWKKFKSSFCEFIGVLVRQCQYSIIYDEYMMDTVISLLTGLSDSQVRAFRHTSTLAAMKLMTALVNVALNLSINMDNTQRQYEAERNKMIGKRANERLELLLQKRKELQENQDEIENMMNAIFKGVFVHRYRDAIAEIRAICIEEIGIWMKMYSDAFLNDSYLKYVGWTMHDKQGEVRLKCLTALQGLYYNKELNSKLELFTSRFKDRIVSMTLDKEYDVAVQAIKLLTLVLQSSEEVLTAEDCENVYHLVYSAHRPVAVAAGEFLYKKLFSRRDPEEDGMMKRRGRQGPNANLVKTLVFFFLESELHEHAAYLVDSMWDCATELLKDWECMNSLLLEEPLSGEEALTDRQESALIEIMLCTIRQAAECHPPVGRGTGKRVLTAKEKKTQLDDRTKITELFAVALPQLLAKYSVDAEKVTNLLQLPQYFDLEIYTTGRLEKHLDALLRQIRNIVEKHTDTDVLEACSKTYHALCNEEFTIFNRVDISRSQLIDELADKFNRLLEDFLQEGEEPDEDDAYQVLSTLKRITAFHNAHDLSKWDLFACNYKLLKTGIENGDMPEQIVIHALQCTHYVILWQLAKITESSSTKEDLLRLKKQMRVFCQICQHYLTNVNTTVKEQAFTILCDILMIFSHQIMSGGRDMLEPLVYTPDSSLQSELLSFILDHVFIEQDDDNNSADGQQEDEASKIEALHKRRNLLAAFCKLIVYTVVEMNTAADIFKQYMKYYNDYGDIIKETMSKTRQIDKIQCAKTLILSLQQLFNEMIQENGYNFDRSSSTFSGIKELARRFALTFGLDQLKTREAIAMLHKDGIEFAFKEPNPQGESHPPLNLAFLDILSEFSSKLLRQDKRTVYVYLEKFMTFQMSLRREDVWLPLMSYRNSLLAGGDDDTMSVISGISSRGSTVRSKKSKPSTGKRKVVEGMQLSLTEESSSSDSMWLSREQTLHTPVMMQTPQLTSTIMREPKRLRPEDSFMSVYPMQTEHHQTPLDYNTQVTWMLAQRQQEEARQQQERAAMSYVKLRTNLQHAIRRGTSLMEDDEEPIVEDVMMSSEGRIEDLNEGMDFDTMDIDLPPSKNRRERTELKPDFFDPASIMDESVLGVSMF

B1: DIS3 (protein, UniProt Q9Y2L1 1-958)
chain: MLKSKTFLKKTRAGGVMKIVREHYLRDDIGCGAPGCAACGGAHEGPALEPQPQDPASSVCPQPHYLLPDTNVLLHQIDVLEDPAIRNVIVLQTVLQEVRNRSAPVYKRIRDVTNNQEKHFYTFTNEHHRETYVEQEQGENANDRNDRAIRVAAKWYNEHLKKMSADNQLQVIFITNDRRNKEKAIEEGIPAFTCEEYVKSLTANPELIDRLACLSEEGNEIESGKIIFSEHLPLSKLQQGIKSGTYLQGTFRASRENYLEATVWIHGDNEENKEIILQGLKHLNRAVHEDIVAVELLPKSQWVAPSSVVLHDEGQNEEDVEKEEETERMLKTAVSEKMLKPTGRVVGIIKRNWRPYCGMLSKSDIKESRRHLFTPADKRIPRIRIETRQASTLEGRRIIVAIDGWPRNSRYPNGHFVRNLGDVGEKETETEVLLLEHDVPHQPFSQAVLSFLPKMPWSITEKDMKNREDLRHLCICSVDPPGCTDIDDALHCRELENGNLEVGVHIADVSHFIRPGNALDQESARRGTTVYLCEKRIDMVPELLSSNLCSLKCDVDRLAFSCIWEMNHNAEILKTKFTKSVINSKASLTYAEAQLRIDSANMNDDITTSLRGLNKLAKILKKRRIEKGALTLSSPEVRFHMDSETHDPIDLQTKELRETNSMVEEFMLLANISVAKKIHEEFSEHALLRKHPAPPPSNYEILVKAARSRNLEIKTDTAKSLAESLDQAESPTFPYLNTLLRILATRCMMQAVYFCSGMDNDFHHYGLASPIYTHFTSPIRRYADVIVHRLLAVAIGADCTYPELTDKHKLADICKNLNFRHKMAQYAQRASVAFHTQLFFKSKGIVSEEAYILFVRKNAIVVLIPKYGLEGTVFFEEKDKPNPQLIYDDEIPSLKIEDTVFHVFDKVKVKIMLDSSNLQHQKIRMSLVEPQIPGISIPTDTSNMDLNGPKKKKMKLGK

Tests used:
[1] = target: T1, SA1 (Stromalin Antigen 1, STAG1) (human (endogenous in HCT116 and HeLa)); assay: affinity purification with mass spectrometry; endogenous SA1 IP (15 μg antibody, 2 mg chromatin extract) from RAD21mAC cells untreated or IAA 4 h, with IgG and siSA1 controls; LC-MS/MS, three biological replicates
[2] = target: T2, YFP-SA2^e32+ (YFP-tagged SA2 containing exon 32) (human); assay: affinity purification with mass spectrometry; GFP-Trap IP of YFP-SA2 isoforms from whole cell lysates of transfected HCT116 OsTIR cells, prepared as for CLIP, washes in high salt buffer (1 M NaCl, 1 M urea); LC-MS/MS, three biological replicates; GFP-Trap of untransfected cells as mock

Molecule | binding [1] | binding [2]
YTHDF3 (from UniProt Q7Z739 1-585) | binds | binds
B1 | – | binds

Results are given in words; binding and its absence hold for the method and conditions named. In cells and extracts the contact can be indirect. Here binding means that the protein was enriched with, or labelled near, the bait; the list need not be complete. Sequences can lack the tags named with a protein.
